The target in experiment [1] is T1, FACT heterodimeric complex (hSpt16p and SSRP1) (human (endogenous in HeLa and K562)) (UniProt Q9Y5B9+Q08945). In words: co-IP; HeLa nuclear extracts fractionated by gel filtration on Sephacryl S-400; selected fractions immunoprecipitated with anti-SSRP1 mAb 10D1; Western blot. A general note: SEC sorts molecules by how far they enter the pores of the column.
Experiment [2] deals with T1, FACT heterodimeric complex (hSpt16p and SSRP1) (human (endogenous in HeLa and K562)). Kind of experiment: co-IP; HeLa nuclear extracts fractionated by gel filtration on Sephacryl S-400; selected fractions immunoprecipitated with anti-hSpt16p mAb 8D2; Western blot.
For experiment [3] the target is unchanged. Kind of experiment: co-IP; HeLa whole cell extracts and nuclear extracts; FACT precipitated with anti-hSpt16p mAb 8D2 prebound to protein G-Sepharose, washed in the cell lysis buffer; Western blot with pan-MCM or individual antibodies. For orientation: In western blotting, separated proteins are transferred to a membrane and probed.
Experiment [4] has the same target. In words: co-IP; HeLa whole cell extracts and nuclear extracts (exponentially growing or synchronised cells); FACT precipitated with anti-SSRP1 mAb 10D1 prebound to protein G-Sepharose, washed in the cell lysis buffer; Western blot with pan-MCM or individual antibodies.
The target is the same in experiment [5]. Kind of experiment: co-IP; HeLa whole cell extracts and nuclear extracts; FACT precipitated with anti-hSpt16p mAb 8D2 prebound to protein G-Sepharose, washed in the cell lysis buffer; Western blot with pan-MCM or individual antibodies. The source holds these as a separate data set.
Experiment [6] shares this target. Kind of experiment: co-IP; HeLa whole cell extracts and nuclear extracts (exponentially growing or synchronised cells); FACT precipitated with anti-SSRP1 mAb 10D1 prebound to protein G-Sepharose, washed in the cell lysis buffer; Western blot with pan-MCM or individual antibodies. This is another data set of the same source.

The chains behind the UniProt entries cited, without tags or fusion partners. Where a name states a change or a piece, a line headed by the entry shows the natural chain unless it says otherwise.
UniProt Q9Y5B9: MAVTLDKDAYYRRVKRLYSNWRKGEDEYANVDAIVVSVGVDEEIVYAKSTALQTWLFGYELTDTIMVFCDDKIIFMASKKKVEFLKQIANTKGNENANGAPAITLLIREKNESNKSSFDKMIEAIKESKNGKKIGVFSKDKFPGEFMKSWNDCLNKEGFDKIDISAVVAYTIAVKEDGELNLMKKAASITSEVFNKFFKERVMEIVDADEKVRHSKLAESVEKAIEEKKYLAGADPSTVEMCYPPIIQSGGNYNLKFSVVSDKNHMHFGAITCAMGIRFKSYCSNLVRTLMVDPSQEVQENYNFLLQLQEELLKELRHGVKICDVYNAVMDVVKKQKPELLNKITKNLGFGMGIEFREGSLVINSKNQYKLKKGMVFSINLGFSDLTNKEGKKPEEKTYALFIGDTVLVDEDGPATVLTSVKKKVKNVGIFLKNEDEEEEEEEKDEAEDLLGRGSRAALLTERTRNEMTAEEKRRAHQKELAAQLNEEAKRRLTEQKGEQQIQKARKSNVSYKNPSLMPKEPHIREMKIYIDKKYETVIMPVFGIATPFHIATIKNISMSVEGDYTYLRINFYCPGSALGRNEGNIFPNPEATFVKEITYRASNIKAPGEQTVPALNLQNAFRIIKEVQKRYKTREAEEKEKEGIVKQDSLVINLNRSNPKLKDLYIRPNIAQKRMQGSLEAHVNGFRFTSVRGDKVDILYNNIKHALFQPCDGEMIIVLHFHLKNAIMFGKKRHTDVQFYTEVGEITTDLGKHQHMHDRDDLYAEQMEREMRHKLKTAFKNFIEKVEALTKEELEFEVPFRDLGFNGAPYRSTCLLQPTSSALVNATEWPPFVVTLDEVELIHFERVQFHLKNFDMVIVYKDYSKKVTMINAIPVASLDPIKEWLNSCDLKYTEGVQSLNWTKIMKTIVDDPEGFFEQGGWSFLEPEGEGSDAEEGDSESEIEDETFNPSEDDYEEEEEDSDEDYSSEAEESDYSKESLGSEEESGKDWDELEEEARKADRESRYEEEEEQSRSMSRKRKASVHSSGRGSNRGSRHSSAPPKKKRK
UniProt Q08945: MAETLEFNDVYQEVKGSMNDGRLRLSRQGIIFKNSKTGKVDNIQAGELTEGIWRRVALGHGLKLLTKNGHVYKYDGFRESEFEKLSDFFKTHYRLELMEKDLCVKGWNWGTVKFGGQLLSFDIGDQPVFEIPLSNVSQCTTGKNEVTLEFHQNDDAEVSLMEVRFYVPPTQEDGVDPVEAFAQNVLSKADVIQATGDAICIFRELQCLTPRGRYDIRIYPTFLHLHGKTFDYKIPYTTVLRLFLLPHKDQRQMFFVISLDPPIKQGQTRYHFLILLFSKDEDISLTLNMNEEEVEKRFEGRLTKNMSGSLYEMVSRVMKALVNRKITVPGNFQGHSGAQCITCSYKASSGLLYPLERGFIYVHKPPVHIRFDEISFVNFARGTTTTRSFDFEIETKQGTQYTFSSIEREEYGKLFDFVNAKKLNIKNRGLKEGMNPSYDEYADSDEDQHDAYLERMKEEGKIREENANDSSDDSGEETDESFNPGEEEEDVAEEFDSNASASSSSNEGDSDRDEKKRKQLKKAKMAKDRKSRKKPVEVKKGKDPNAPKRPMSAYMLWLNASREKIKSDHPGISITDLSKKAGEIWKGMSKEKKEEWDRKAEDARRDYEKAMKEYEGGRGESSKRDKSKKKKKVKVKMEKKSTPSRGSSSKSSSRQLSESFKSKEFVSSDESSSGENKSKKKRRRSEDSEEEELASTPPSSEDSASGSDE
UniProt P49736: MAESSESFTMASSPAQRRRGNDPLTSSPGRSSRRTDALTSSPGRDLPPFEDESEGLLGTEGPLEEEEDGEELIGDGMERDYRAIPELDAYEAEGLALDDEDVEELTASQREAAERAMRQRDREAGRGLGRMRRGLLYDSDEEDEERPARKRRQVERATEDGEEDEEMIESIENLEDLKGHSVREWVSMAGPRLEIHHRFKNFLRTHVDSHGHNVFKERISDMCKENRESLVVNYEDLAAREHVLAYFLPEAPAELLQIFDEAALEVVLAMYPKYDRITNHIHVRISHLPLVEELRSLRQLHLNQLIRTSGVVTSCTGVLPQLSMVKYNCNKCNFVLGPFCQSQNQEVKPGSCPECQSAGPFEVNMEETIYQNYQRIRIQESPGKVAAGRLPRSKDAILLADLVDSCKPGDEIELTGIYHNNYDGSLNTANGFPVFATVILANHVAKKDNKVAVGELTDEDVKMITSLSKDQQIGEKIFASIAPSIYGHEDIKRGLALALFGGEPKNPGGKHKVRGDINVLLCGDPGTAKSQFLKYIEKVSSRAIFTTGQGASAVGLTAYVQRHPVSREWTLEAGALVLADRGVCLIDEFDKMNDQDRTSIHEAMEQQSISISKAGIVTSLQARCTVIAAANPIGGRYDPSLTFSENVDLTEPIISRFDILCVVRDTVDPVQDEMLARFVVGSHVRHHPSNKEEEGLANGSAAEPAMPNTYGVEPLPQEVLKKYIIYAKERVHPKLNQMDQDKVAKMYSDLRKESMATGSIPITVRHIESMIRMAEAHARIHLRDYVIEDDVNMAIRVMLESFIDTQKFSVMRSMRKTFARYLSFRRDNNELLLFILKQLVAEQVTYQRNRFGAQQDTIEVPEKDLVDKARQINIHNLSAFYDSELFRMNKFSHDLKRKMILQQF

Results are given in words; binding and its absence hold for the method and conditions named. In cells and extracts the contact can be indirect. Some results given as binding are weak or reduced against the parent protein; the word gives no strength.

As to MCM2 (from UniProt P49736 1-904), the binding result in experiment [1], in experiment [2], in experiment [3] and in experiment [4] was “binds” in each case.

B1: MCM5 (protein, UniProt P33992 1-734)
chain: MSGFDDPGIFYSDSFGGDAQADEGQARKSQLQRRFKEFLRQYRVGTDRTGFTFKYRDELKRHYNLGEYWIEVEMEDLASFDEDLADYLYKQPAEHLQLLEEAAKEVADEVTRPRPSGEEVLQDIQVMLKSDASPSSIRSLKSDMMSHLVKIPGIIIAASAVRAKATRISIQCRSCRNTLTNIAMRPGLEGYALPRKCNTDQAGRPKCPLDPYFIMPDKCKCVDFQTLKLQELPDAVPHGEMPRHMQLYCDRYLCDKVVPGNRVTIMGIYSIKKFGLTTSRGRDRVGVGIRSSYIRVLGIQVDTDGSGRSFAGAVSPQEEEEFRRLAALPNVYEVISKSIAPSIFGGTDMKKAIACLLFGGSRKRLPDGLTRRGDINLLMLGDPGTAKSQLLKFVEKCSPIGVYTSGKGSSAAGLTASVMRDPSSRNFIMEGGAMVLADGGVVCIDEFDKMREDDRVAIHEAMEQQTISIAKAGITTTLNSRCSVLAAANSVFGRWDETKGEDNIDFMPTILSRFDMIFIVKDEHNEERDVMLAKHVITLHVSALTQTQAVEGEIDLAKLKKFIAYCRVKCGPRLSAEAAEKLKNRYIIMRSGARQHERDSDRRSSIPITVRQLEAIVRIAEALSKMKLQPFATEADVEEALRLFQVSTLDAALSGTLSGVEGFTSQEDQEMLSRIEKQLKRRFAIGSQVSEHSIIKDFTKQKYPEHAIHKVLQLMLRRGEIQHRMQRKVLYRLK
For the molecule B1, the binding result in experiment [2] and in experiment [5] was “binds” in each case.

B2: MCM6 (protein, UniProt Q14566 1-821)
chain: MDLAAAAEPGAGSQHLEVRDEVAEKCQKLFLDFLEEFQSSDGEIKYLQLAEELIRPERNTLVVSFVDLEQFNQQLSTTIQEEFYRVYPYLCRALKTFVKDRKEIPLAKDFYVAFQDLPTRHKIRELTSSRIGLLTRISGQVVRTHPVHPELVSGTFLCLDCQTVIRDVEQQFKYTQPNICRNPVCANRRRFLLDTNKSRFVDFQKVRIQETQAELPRGSIPRSLEVILRAEAVESAQAGDKCDFTGTLIVVPDVSKLSTPGARAETNSRVSGVDGYETEGIRGLRALGVRDLSYRLVFLACCVAPTNPRFGGKELRDEEQTAESIKNQMTVKEWEKVFEMSQDKNLYHNLCTSLFPTIHGNDEVKRGVLLMLFGGVPKTTGEGTSLRGDINVCIVGDPSTAKSQFLKHVEEFSPRAVYTSGKASSAAGLTAAVVRDEESHEFVIEAGALMLADNGVCCIDEFDKMDVRDQVAIHEAMEQQTISITKAGVKATLNARTSILAAANPISGHYDRSKSLKQNINLSAPIMSRFDLFFILVDECNEVTDYAIARRIVDLHSRIEESIDRVYSLDDIRRYLLFARQFKPKISKESEDFIVEQYKHLRQRDGSGVTKSSWRITVRQLESMIRLSEAMARMHCCDEVQPKHVKEAFRLLNKSIIRVETPDVNLDQEEEIQMEVDEGAGGINGHADSPAPVNGINGYNEDINQESAPKASLRLGFSEYCRISNLIVLHLRKVEEEEDESALKRSELVNWYLKEIESEIDSEEELINKKRIIEKVIHRLTHYDHVLIELTQAGLKGSTEGSESYEEDPYLVVNPNYLLED
With B2, the binding result in experiment [1] and in experiment [6] was “binds” throughout.

B3: MCM3 (protein, UniProt P25205 1-808)
chain: MAGTVVLDDVELREAQRDYLDFLDDEEDQGIYQSKVRELISDNQYRLIVNVNDLRRKNEKRANRLLNNAFEELVAFQRALKDFVASIDATYAKQYEEFYVGLEGSFGSKHVSPRTLTSCFLSCVVCVEGIVTKCSLVRPKVVRSVHYCPATKKTIERRYSDLTTLVAFPSSSVYPTKDEENNPLETEYGLSVYKDHQTITIQEMPEKAPAGQLPRSVDVILDDDLVDKAKPGDRVQVVGTYRCLPGKKGGYTSGTFRTVLIACNVKQMSKDAQPSFSAEDIAKIKKFSKTRSKDIFDQLAKSLAPSIHGHDYVKKAILCLLLGGVERDLENGSHIRGDINILLIGDPSVAKSQLLRYVLCTAPRAIPTTGRGSSGVGLTAAVTTDQETGERRLEAGAMVLADRGVVCIDEFDKMSDMDRTAIHEVMEQGRVTIAKAGIHARLNARCSVLAAANPVYGRYDQYKTPMENIGLQDSLLSRFDLLFIMLDQMDPEQDREISDHVLRMHRYRAPGEQDGDAMPLGSAVDILATDDPNFSQEDQQDTQIYEKHDNLLHGTKKKKEKMVSAAFMKKYIHVAKIIKPVLTQESATYIAEEYSRLRSQDSMSSDTARTSPVTARTLETLIRLATAHAKARMSKTVDLQDAEEAVELVQYAYFKKVLEKEKKRKKRSEDESETEDEEEKSQEDQEQKRKRRKTRQPDAKDGDSYDPYDFSDTEEEMPQVHTPKTADSQETKESQKVELSESRLKAFKVALLDVFREAHAQSIGMNRLTESINRDSEEPFSSVEIQAALSKMQDDNQVMVSEGIIFLI
Regarding B3, the binding entry in experiment [2] and in experiment [5] was “binds” in each case.

B4: Cdc45 (protein, UniProt O75419 1-566)
chain: MFVSDFRKEFYEVVQSQRVLLFVASDVDALCACKILQALFQCDHVQYTLVPVSGWQELETAFLEHKEQFHYFILINCGANVDLLDILQPDEDTIFFVCDTHRPVNVVNVYNDTQIKLLIKQDDDLEVPAYEDIFRDEEEDEEHSGNDSDGSEPSEKRTRLEEEIVEQTMRRRQRREWEARRRDILFDYEQYEYHGTSSAMVMFELAWMLSKDLNDMLWWAIVGLTDQWVQDKITQMKYVTDVGVLQRHVSRHNHRNEDEENTLSVDCTRISFEYDLRLVLYQHWSLHDSLCNTSYTAARFKLWSVHGQKRLQEFLADMGLPLKQVKQKFQAMDISLKENLREMIEESANKFGMKDMRVQTFSIHFGFKHKFLASDVVFATMSLMESPEKDGSGTDHFIQALDSLSRSNLDKLYHGLELAKKQLRATQQTIASCLCTNLVISQGPFLYCSLMEGTPDVMLFSRPASLSLLSKHLLKSFVCSTKNRRCKLLPLVMAAPLSMEHGTVTVVGIPPETDSSDRKNFFGRAFEKAAESTSSRMLHNHFDLSVIELKAEDRSKFLDALISLLS
In the case of B4, the binding entry in experiment [5] and in experiment [6] was “binds” in each case.

B5: Cdc6 (protein, UniProt Q99741 1-560)
chain: MPQTRSQAQATISFPKRKLSRALNKAKNSSDAKLEPTNVQTVTCSPRVKALPLSPRKRLGDDNLCNTPHLPPCSPPKQGKKENGPPHSHTLKGRRLVFDNQLTIKSPSKRELAKVHQNKILSSVRKSQEITTNSEQRCPLKKESACVRLFKQEGTCYQQAKLVLNTAVPDRLPAREREMDVIRNFLREHICGKKAGSLYLSGAPGTGKTACLSRILQDLKKELKGFKTIMLNCMSLRTAQAVFPAIAQEICQEEVSRPAGKDMMRKLEKHMTAEKGPMIVLVLDEMDQLDSKGQDVLYTLFEWPWLSNSHLVLIGIANTLDLTDRILPRLQAREKCKPQLLNFPPYTRNQIVTILQDRLNQVSRDQVLDNAAVQFCARKVSAVSGDVRKALDVCRRAIEIVESDVKSQTILKPLSECKSPSEPLIPKRVGLIHISQVISEVDGNRMTLSQEGAQDSFPLQQKILVCSLMLLIRQLKIKEVTLGKLYEAYSKVCRKQQVAAVDQSECLSLSGLLEARGILGLKRNKETRLTKVFFKIEEKEIEHALKDKALIGNILATGLP
As to B5, the binding entry in experiment [5] was “binds”; in experiment [6] it was “binds weakly”.

The values are drawn from article PMC2848000.
